Values quoted from earlier work, collected in patent publication EP2490021A1, “Modulators of PRR and GPCR signalling” (Biotempt B.V., priority 2011, dated 2012).
Some results were stated once for a whole list of compounds, not compound by compound. Where a SMILES comes first, the peptide text is derived from it.

Protein sequences, listed by entry. Tags and fused reporters are not part of them. Residues count along the entry.
UniProt P22888, 27-699: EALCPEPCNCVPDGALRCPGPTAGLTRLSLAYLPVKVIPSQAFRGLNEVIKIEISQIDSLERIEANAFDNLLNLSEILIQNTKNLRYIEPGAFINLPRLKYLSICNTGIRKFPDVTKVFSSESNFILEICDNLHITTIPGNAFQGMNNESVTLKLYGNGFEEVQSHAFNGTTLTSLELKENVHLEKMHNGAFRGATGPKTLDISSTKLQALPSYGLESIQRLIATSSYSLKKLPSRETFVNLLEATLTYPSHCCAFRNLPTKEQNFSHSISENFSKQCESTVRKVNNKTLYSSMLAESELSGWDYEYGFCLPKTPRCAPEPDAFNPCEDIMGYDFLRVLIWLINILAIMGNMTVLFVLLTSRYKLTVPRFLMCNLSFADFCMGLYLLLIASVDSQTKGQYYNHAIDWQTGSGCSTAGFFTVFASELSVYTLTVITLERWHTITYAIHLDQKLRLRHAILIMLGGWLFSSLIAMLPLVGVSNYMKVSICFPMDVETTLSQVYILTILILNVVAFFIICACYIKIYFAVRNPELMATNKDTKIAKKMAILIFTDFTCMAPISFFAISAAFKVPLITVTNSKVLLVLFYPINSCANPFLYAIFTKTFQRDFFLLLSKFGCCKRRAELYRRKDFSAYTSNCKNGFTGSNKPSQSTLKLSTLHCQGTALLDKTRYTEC

Biological target: luteinizing hormone (LH) receptor (Homo sapiens, UniProt P22888)
Conditions: cited from earlier work

CC(C)[C@H](NC(=O)CNC(=O)[C@H](CCC(N)=O)NC(=O)[C@H](C)N)C(=O)O [AQGV] (H-AQGV-OH)
binding to the luteinizing hormone (LH) receptor: do not bind
interference with the binding of hCG to the LH receptor: nor do they interfere

CC(C)C[C@H](N)C(=O)N[C@@H](CCC(N)=O)C(=O)NCC(=O)N[C@H](C(=O)O)C(C)C [LQGV] (H-LQGV-OH)
binding to the luteinizing hormone (LH) receptor: do not bind
interference with the binding of hCG to the LH receptor: nor do they interfere

CC(C)C[C@H](NC(=O)[C@H](C)NC(=O)[C@@H]1CCCN1C(=O)[C@H](CC(C)C)NC(=O)[C@@H](N)C(C)C)C(=O)N1CCC[C@H]1C(=O)O [VLPALP] (H-VLPALP-OH)
binding to the luteinizing hormone (LH) receptor: do not bind
interference with the binding of hCG to the LH receptor: nor do they interfere
